Reference: patent publication US8188218B2, “Bi-functional peptides for multiple sclerosis treatment and diagnosis” (priority 2006, dated 2012)
At least one peptide structure holds a part that was inferred or is arguable (an end, a ring closure or a residue). Peptide text beside a SMILES is read from it.

Tested on: EAE mouse model (SJL/J female mice immunized with PLP/CFA)
Assay type: in vivo
Conditions: for EAE score / disease progression (in words): FIG. 2, compared to PBS control and other peptides
Procedure: To evaluate the in vivo activity of these molecules, SJL/J female mice at 6-8 weeks of age (Jackson Laboratory, Bar Harbor, Me.) were divided into six groups with ten mice in each group. At the initiation state (Day 0), all mice (10/group) were immunized by subcutaneous (s.c.) inoculation with 200 μg of PLP in a 0.2 mL emulsion with equal volumes of phosphate buffered saline (“PBS”) and complete Freund's adjuvant (“CFA”) (Difco, Detroit, Mich.). To enhance immunization with antigen, killed Mycobacterium tuberculosis strain H37RA (Difco) was added to the emulsion at a concentration of 4 mg/mL and administered to regions above the shoulder and the flanks. The injection volume was 50 μL at each injection site. In addition, 200 ng of pertussis toxin (List Biological Laboratories, Campbell, Calif.) was injected intraperitoneally (i.p.) on the day of immunization and 48 hours post-immunization. The onset of disease was on day 8 to day 12 post-immunization. Then, each mouse in Groups 1-4 received intravenous (i.v.) injections of 100 nmole/100 μL of the test peptides (PLP-BPI, PLP139-151, OVA-BPI, LABL) on days 4, 7, 10 and 14. Group 5 animals were injected with PBS on days 4, 7, 10 and 14. Group 6 animals received one i.p. injection of 500 μg PLPL,R on day 7.
All of the immunized mice were scored blindly 5-6 days/week by the same observer. Mean daily clinical scores were calculated by adding the grades of each mouse individually divided by the number of mice in each group. All animals were observed daily and, upon signs of paralysis and weakness, gel food and Napa nectar were provided to the animals to prevent dehydration. Saline was injected (s.c.) if a weight loss of 10% was observed within a 24-hour period. Body weight and disease scoring started at the onset of the disease (day 8). The measurements were continued daily (5 to 6 days/week) until the end of the disease.
The statistical analyses of the EAE scores and EAE incidence were done using Mann-Whitney U test and Kaplan-Meier analysis, respectively. […]

## CC[C@H](C)[C@H](NC(=O)CCCCCNC(=O)CNC(=O)CCCCCNC(=O)CNC(=O)CCCCCNC(=O)[C@H](C)NC(=O)[C@H](CCC(=O)O)NC(=O)[C@H](CC(N)=O)NC(=O)[C@@H](NC(=O)[C@H](CCC(=O)O)NC(=O)[C@H](C)NC(=O)[C@H](Cc1c[nH]cn1)NC(=O)[C@H](C)NC(=O)[C@H](C)NC(=O)[C@H](Cc1c[nH]cn1)NC(=O)[C@@H](NC(=O)[C@H](C)N)C(C)C)[C@@H](C)CC)C(=O)N[C@H](C(=O)N[C@@H](CC(=O)O)C(=O)NCC(=O)N[C@@H](CCC(=O)O)C(=O)N[C@@H](C)C(=O)N[C@H](C(=O)N[C@@H](CC(=O)O)C(=O)N[C@@H](CO)C(=O)NCC(=O)O)[C@@H](C)O)[C@@H](C)O [OVA-BPI, AVHAAHAEINEA-AcGAcGAc-ITDGEATDSG]
  EAE score / disease progression (in words): disease progression similar to that of the control group

## CC[C@H](C)[C@H](N)C(=O)N[C@H](C(=O)N[C@@H](CC(=O)O)C(=O)NCC(=O)N[C@@H](CCC(=O)O)C(=O)N[C@@H](C)C(=O)N[C@H](C(=O)N[C@@H](CC(=O)O)C(=O)N[C@@H](CO)C(=O)NCC(=O)O)[C@@H](C)O)[C@@H](C)O [LABL, ITDGEATDSG]
  EAE score / disease progression (in words): disease progression similar to that of the control group

## CC(C)C[C@H](NC(=O)[C@H](CC(C)C)NC(=O)[C@H](CCCCN)NC(=O)CNC(=O)[C@H](CC(C)C)NC(=O)[C@H](CO)NC(=O)[C@@H](N)Cc1c[nH]cn1)C(=O)NCC(=O)N[C@@H](CCCNC(=N)N)C(=O)N1CCC[C@H]1C(=O)N[C@@H](CC(=O)O)C(=O)N[C@@H](CCCCN)C(=O)N[C@@H](Cc1ccccc1)C(=O)O [PLPL,R, HSLGKLLGRPDKF] (H-HSLGKLLGRPDKF-OH)
FIG. 3, compared to PBS control
  EAE incidence (in words): significantly higher than that of controls
